Reference: publication PMC10282087
These are yes or no findings as the source states them, for the method shown. In cells and extracts the contact can be indirect. These calls come from enrichment with a bait or labelling near it, and not all partners need be listed.

The chains behind the UniProt entries cited, without tags or fusion partners.
UniProt Q9UHP3: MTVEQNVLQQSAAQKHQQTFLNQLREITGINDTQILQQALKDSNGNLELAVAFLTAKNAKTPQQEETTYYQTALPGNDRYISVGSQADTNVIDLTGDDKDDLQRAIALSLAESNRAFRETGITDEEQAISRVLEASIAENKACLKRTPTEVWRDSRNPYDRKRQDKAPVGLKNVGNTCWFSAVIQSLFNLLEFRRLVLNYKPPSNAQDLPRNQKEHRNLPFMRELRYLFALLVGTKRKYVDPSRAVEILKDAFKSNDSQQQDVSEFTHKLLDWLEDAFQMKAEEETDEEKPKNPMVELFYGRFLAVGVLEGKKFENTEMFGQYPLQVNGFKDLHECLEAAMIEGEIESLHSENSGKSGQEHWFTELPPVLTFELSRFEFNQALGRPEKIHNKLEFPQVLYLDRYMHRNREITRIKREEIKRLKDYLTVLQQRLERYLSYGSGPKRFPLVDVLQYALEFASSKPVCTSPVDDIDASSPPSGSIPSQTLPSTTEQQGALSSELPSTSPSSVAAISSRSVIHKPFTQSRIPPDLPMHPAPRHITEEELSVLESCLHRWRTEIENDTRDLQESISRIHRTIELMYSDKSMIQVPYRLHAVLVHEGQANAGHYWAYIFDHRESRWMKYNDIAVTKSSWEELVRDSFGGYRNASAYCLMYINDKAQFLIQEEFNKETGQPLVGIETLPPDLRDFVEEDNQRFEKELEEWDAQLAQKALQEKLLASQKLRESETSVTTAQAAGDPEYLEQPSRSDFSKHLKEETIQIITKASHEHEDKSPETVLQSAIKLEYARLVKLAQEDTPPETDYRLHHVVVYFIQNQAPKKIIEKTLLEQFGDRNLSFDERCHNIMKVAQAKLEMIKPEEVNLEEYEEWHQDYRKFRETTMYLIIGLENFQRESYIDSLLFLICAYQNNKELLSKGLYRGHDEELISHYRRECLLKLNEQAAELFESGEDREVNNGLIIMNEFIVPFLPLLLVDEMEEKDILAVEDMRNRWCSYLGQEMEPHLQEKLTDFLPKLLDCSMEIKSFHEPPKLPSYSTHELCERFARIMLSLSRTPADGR
UniProt Q14145: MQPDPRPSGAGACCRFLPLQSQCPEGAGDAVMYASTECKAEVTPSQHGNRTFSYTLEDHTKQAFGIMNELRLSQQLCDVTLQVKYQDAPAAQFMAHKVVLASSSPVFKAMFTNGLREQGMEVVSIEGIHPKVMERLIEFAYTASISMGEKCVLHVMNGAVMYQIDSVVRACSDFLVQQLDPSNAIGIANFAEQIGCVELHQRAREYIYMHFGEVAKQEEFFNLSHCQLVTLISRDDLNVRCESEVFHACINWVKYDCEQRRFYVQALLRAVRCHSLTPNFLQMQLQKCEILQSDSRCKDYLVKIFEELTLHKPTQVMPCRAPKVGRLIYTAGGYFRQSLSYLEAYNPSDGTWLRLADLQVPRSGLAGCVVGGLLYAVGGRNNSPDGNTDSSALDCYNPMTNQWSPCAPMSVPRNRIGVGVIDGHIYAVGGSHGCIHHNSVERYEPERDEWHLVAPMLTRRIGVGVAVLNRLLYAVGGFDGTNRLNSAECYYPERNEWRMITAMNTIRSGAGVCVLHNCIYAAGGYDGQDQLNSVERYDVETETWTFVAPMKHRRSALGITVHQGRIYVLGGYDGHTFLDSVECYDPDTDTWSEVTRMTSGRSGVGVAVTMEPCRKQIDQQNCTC

Molecular target: FLAG-tagged USP25 (ubiquitin-specific peptidase 25) (human) (UniProt Q9UHP3)
Assay: affinity purification with mass spectrometry; FLAG-USP25 transiently transfected in HEK293T for 48 h, immunoprecipitated with anti-Flag magnetic beads, SDS-PAGE, gel sections digested with trypsin, LC-MS/MS

binding: binds
Substance: Kelch-like ECH-associated protein 1 (KEAP1), endogenous in HEK293T cells (from UniProt Q14145 1-624)
